No constants are given. Whether binding was seen depends on the method and setting. Binding seen in cells or lysates may run through a third protein. Some binding calls cover weakened binding; strength is not graded here. For some of these results: Tags and fused reporters may be left off the sequences shown.
Key:
[1] = target: T1, FLAG tagged hnRNP M (wild-type, full length) (UniProt P52272); test: co-IP; HEK 293T transfected with FLAG tagged plasmids only; FLAG antibody IP; blots for endogenous Rictor, Raptor and mTOR; washes include 0.5 M NaCl
T1 sequence: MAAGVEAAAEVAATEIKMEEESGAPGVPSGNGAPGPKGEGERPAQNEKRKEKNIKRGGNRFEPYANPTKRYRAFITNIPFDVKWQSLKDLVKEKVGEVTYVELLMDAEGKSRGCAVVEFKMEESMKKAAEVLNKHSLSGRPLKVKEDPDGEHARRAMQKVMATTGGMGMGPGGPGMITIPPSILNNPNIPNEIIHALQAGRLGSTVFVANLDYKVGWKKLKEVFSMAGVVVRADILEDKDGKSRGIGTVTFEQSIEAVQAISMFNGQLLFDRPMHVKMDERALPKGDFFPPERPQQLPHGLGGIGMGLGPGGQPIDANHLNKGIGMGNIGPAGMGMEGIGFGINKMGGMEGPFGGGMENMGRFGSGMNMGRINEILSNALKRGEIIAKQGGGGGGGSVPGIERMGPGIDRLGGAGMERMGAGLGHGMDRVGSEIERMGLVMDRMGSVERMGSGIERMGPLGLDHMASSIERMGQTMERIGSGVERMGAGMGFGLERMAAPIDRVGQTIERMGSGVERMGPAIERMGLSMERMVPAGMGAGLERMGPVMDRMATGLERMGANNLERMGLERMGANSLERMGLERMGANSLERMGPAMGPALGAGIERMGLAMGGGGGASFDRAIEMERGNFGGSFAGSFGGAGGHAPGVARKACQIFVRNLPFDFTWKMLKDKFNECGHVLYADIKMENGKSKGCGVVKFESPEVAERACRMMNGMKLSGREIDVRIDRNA

Sequences of proteins named here, by UniProt entry; tags and fusion partners are left off. A change or cut given only in a name is not applied to a line headed by its entry. A line that says so, or that is headed by a name, gives the form on record, which may keep a tag or linker. Residues count along the entry.
UniProt Q6R327: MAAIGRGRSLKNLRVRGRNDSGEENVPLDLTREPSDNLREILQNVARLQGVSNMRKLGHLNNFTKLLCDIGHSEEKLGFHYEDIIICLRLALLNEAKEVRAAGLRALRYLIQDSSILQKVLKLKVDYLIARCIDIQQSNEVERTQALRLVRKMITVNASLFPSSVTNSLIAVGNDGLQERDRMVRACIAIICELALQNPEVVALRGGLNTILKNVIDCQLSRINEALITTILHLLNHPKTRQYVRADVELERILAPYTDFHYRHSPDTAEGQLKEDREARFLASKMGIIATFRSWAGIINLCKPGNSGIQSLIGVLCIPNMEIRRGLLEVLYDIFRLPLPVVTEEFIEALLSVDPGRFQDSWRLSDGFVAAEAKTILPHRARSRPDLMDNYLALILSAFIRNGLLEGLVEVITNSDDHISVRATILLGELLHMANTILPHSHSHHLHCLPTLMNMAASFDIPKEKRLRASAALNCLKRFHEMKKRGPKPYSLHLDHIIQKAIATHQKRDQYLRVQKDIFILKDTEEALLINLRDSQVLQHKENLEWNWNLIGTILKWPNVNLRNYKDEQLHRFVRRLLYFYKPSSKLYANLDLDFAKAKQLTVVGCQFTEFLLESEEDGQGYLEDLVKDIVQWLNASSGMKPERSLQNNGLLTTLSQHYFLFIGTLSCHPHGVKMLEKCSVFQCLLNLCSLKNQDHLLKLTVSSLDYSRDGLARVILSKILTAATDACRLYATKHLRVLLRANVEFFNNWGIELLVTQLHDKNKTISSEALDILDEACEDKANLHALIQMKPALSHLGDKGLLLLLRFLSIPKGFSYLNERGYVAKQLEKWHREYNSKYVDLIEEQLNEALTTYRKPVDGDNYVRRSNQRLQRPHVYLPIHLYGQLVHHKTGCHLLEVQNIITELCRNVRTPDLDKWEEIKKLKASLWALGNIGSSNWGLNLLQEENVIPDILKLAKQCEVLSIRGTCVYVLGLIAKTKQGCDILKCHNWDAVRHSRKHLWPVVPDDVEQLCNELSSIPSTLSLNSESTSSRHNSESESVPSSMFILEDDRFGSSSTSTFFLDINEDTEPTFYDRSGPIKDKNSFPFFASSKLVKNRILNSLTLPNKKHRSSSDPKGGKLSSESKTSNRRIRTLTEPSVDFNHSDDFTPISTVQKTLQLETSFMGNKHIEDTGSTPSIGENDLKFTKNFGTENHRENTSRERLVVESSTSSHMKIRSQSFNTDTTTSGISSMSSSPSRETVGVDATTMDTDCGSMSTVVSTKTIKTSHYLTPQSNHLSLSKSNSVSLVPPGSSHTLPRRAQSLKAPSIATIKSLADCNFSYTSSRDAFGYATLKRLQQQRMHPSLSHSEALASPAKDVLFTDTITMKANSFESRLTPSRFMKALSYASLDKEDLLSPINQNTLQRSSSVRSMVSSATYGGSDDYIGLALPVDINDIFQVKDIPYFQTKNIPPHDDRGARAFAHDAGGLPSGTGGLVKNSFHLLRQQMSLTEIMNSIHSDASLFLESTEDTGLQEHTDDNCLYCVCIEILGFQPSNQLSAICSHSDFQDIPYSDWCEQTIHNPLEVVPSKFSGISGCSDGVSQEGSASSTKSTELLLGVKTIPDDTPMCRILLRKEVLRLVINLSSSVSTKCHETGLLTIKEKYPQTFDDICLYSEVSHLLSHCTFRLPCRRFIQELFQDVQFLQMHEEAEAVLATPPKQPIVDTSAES
HA tagged Rictor aa 1181-1708: residues 1181-1708 of Q6R327
UniProt Q8N122: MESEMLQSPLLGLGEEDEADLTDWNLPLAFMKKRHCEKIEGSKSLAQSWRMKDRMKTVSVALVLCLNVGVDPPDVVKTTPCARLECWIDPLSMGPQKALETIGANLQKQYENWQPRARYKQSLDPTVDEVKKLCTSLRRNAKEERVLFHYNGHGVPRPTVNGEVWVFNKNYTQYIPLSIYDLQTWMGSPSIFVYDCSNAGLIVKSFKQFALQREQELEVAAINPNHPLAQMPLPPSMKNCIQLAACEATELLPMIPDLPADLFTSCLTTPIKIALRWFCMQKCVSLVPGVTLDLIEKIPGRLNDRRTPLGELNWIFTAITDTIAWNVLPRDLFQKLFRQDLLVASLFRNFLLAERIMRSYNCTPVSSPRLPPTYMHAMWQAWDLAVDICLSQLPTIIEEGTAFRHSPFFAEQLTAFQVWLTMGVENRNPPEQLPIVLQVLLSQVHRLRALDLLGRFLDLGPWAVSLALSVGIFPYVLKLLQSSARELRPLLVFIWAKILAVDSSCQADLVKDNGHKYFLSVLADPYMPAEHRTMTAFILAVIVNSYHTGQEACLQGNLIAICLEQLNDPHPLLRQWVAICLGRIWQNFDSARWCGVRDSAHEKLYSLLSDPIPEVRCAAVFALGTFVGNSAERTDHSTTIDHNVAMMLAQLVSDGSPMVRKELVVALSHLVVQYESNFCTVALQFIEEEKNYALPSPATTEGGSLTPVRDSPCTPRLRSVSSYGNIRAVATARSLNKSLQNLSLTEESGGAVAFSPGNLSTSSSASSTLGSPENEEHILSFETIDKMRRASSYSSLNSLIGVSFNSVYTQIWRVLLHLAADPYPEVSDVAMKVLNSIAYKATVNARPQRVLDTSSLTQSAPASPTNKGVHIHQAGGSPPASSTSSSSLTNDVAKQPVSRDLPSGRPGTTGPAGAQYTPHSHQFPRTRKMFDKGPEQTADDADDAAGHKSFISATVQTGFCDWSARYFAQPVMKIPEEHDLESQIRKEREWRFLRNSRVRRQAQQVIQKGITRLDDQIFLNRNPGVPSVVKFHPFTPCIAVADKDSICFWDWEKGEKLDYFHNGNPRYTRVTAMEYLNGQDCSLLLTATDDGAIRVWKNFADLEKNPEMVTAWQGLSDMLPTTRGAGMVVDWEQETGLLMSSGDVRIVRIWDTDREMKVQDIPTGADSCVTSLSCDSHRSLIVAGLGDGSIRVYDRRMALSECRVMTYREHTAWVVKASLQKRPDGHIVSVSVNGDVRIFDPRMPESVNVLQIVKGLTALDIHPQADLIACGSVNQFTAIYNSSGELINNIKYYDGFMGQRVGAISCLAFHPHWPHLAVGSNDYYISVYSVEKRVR

[2] = target: Rictor (endogenous, HEK 293T) (human (endogenous in HEK 293T)) (UniProt Q6R327); test: co-IP; endogenous proteins only: Rictor, Raptor and control (rabbit normal IgG) antibodies used to IP from HEK 293T lysates; blot for hnRNP M
[3] = target: Raptor (endogenous, HEK 293T) (human (endogenous in HEK 293T)) (UniProt Q8N122); test: as above
[4] = target: HA tagged Rictor aa 1181-1708 (UniProt Q6R327); test: co-IP; HEK 293T co-transfected with FLAG-hnRNP M and HA tagged Rictor proteins (wild-type, aa 1-860, aa 1181-1708); HA antibody IP; blots with anti-FLAG and anti-HA

Raptor (endogenous, HEK 293T) (from UniProt Q8N122 1-1335)
binding [1]: no binding

B1: hnRNP M (endogenous, HEK 293T) (protein, UniProt P52272 1-730)
chain: T1 sequence
binding [2]: binds | binding [3]: no binding

B2: FLAG tagged hnRNP M (wild-type, full length) (protein, UniProt P52272 1-730)
chain: T1 sequence
binding [4]: binds
